The record followed here is PubChem BioAssay AID2685 (National Center for Advancing Translational Sciences (NCATS), 2010).

This test can be described thus: qHTS Assay for Lipid Storage Modulators in Drosophila S3 Cells.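 For cell number change: cells counted by Cell Tracker Red CMTPX staining in the red channel.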 Particulars: BODIPY lipid droplet fluorescence, 18-24 h; for cell number change: measured here: cell count max response, cells fed with added oleic acid. The gist of the method:
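Drosophila S3 cells got compounds at several concentrations plus oleic acid (400 uM solution). Laser-scanning cytometry with 488 nm excitation read lipid droplets at 500-530 nm and cells at 575-640 nm. Percent activity was relative to 20 uM Triacsin C.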
(In general: In qHTS, concentration-response curves come from the screen itself.)

Where [1] appears, read: measured here: lipid fluorescence (Fed channel) AC50, cells fed with added oleic acid.
Setting [2] is: measured here: cell number channel AC50, cells fed with added oleic acid.

As usually defined, the AC50 is the midpoint of the concentration-response curve, whichever way the signal moves. Low values mean activity at low concentration, high ones activity only at high concentration.

This is one part of the list. These are further read-outs of the screen, such as a control signal, another cell line or another target. No call is given for them. The list favours compounds with an active or inconclusive main result. Words in brackets tell the shape of the fitted curve; partial curves, single points and poor fits give uncertain potencies.

For the compound `CC(=O)NCC(=O)N(c1ccccc1)C1(C(=O)NC2CCCCC2)CCCCC1`, the cell number change is 8.64%. In addition, the half-maximal activity concentration (AC50) under setting [1] is 2.91 µM [rising, partial curve].
Regarding `COc1ccc(N(C(=O)C(C)C)S(=O)(=O)c2cccs2)cc1`, the cell number change was -3.53%. Besides, the AC50 under setting [1] was 18.4 µM [falling, partial curve].
For the compound `COc1ccc(C2=NOC(C(=O)NCc3ccc(F)cc3)C2)cc1` (stereo not given), the cell number change is -142%. The concentration at half-maximal activity (AC50) under setting [2] is 14.6 µM [falling, partial curve].
As to `CCOc1cc(/C=N/O)ccc1OCc1ccccc1F`, the cell number change is -25.4%. For the same compound, the AC50 under setting [1] is 1.03 µM [rising, full curve, poor fit].
Regarding `Oc1ccccc1CNc1ccc(OC(F)(F)F)cc1`, the cell number change was -44.9%. The AC50 under setting [2] was 23.1 µM [falling, single point]. Moreover, the AC50 under setting [1] was 32.6 µM [falling, partial curve].
With `COc1ccc(/C=C2\C(=O)NC(=S)N2C(=O)c2ccc(F)cc2)cc1`, the cell number change was -19.7%. Besides, under setting [1], the AC50 is 16.4 µM [falling, single point].
Regarding `O=C(O)C1=C[C@H](c2ccc(C(F)(F)F)cc2)C[C@H](OCc2ccc(CO)cc2)O1`, the cell number change is 11.8%. Moreover, the concentration at half-maximal activity (AC50) under setting [1] was 29.1 µM [rising, single point].
Turning to `CCCNC(=O)N1CCN(C(c2ccccc2)c2ccccc2)CC1`, the cell number change stood at 46.3%. Further, the AC50 under setting [2] was 6.51 µM [rising, full curve, poor fit]. Further, the half-maximal activity concentration (AC50) under setting [1] was 20.6 µM [rising, partial curve].
For the compound `CN(C)S(=O)(=O)c1cccc(COC(=O)c2ccc3c(c2)OCO3)c1`, under setting [2], the half-maximal activity concentration (AC50) is 0.651 µM [rising, full curve, poor fit].
In the case of `COc1ccc(OC)c(C(=O)NC(CC(N)=O)c2ccc(N3CCN(c4ccc(F)cc4)CC3)c([N+](=O)[O-])c2)c1` (stereo not given), the cell number change came out at 6.59%. For the same compound, the AC50 under setting [1] is 3.26 µM [rising, single point].
Regarding `Cc1ccc(S(=O)(=O)NCc2ccc(/C=C(/C#N)C(=O)NCc3ccccc3)o2)cc1`, the cell number change was -9.23%. Under setting [1], the AC50 was 29.1 µM [falling, single point].
`O=C(O)CNCC1COc2ccccc2O1` (stereo not given): the cell number change was -33.7%. Also, the concentration at half-maximal activity (AC50) under setting [2] was 0.651 µM [falling, full curve]. Also, the half-maximal activity concentration (AC50) under setting [1] was 0.517 µM [falling, full curve].
As to `CC1Cc2cc(/C(O)=C3/C(=O)C(=O)N(CCN4CCOCC4)C3c3ccc(C(C)C)cc3)ccc2O1` (stereo not given), the cell number change came out at 12.8%.
`O=C(NC(=S)Nc1ccccc1N1CCCCC1)c1cccs1`: the cell number change was 32.7%. For the same compound, under setting [2], the AC50 was 7.31 µM [rising, partial curve]. The AC50 under setting [1] is 7.31 µM [rising, partial curve].
Regarding `CC(CC(=O)Nc1ccc(Cl)c([N+](=O)[O-])c1)c1ccccc1` (stereo not given), the cell number change was -7.39%. Besides, the AC50 under setting [1] is 6.51 µM [rising, single point].
On to `NC(=O)c1ccccc1NS(=O)(=O)Cc1ccccc1`, for which the cell number change was found to be 94.9%. Further, the half-maximal activity concentration (AC50) under setting [2] was 29.1 µM [rising, partial curve, poor fit]. Moreover, the AC50 under setting [1] was 29.1 µM [rising, partial curve].
Turning to `CN(C)CCCNS(=O)(=O)c1ccc(-n2nnc3ccccc32)c([N+](=O)[O-])c1`, the cell number change is -2.86%. Also, the AC50 under setting [1] was 0.206 µM [falling, single point].
In the case of `O=C(Nc1cccc(Cl)c1)c1cccc(Oc2ccc([N+](=O)[O-])cc2Cl)c1`, the cell number change is -3.33%.
As for `CCOCCCNC(=O)C(Cc1ccccc1)NS(=O)(=O)c1ccc2c(c1)c(=O)n(C)c(=O)n2C` (stereo not given), the cell number change worked out at 17.7%. The AC50 under setting [2] is 0.651 µM [rising, partial curve, poor fit]. The half-maximal activity concentration (AC50) under setting [1] was 0.00461 µM [rising, full curve, poor fit].
Consider `Cc1ccc(NC(=O)c2ccc(Cl)c(S(=O)(=O)N3CCCCC3)c2)nc1`, for which the cell number change is -15%. In addition, the AC50 under setting [1] is 29.1 µM [falling, single point].
As to `CC(=O)N1c2ccc(S(=O)(=O)N3CCC(C(=O)Nc4cccc(F)c4)CC3)cc2CC1C` (stereo not given), the cell number change was -20.6%.
Still for that read-out and setting: as for `NC(=O)NS(=O)(=O)Oc1ccccc1`, the figure is -7.44%.
In the case of `CCCNC(=O)Cn1cnc2sc(C(=O)NCCCN3CCOCC3)c(C)c2c1=O`, the cell number change was -0.295%. The AC50 under setting [1] was 1.16 µM [falling, partial curve].
`CCC/C(O)=C1\C(=O)CC(C)(C)CC1=Nc1ccccc1OC`: the cell number change was found to be 8.37%. In addition, the half-maximal activity concentration (AC50) under setting [2] was 2.59 µM [rising, single point]. In addition, the AC50 under setting [1] is 2.06 µM [rising, partial curve, poor fit].
Turning to `O=c1c2ccccc2c2ccccc2c(=O)n1-c1ccccc1`, the cell number change was -12%.
On to `O=Cc1c(N2CCCCCC2)nc2ccccn2c1=O`, for which the cell number change was 17.4%. Also, under setting [1], the half-maximal activity concentration (AC50) is 29.1 µM [falling, single point].
For `CCCCOC(=O)c1ccc(NC(=O)c2ccoc2C)cc1`, the cell number change was determined as 63.4%. For the same compound, under setting [2], the AC50 was 6.51 µM [rising, full curve].
As to `CCC(=O)N1CCN(c2c(Cl)cccc2[N+](=O)[O-])CC1`, the cell number change was -13.9%. The AC50 under setting [2] is 0.184 µM [rising, full curve].
In the case of `O=C(NNC(=O)C1CCN(Cc2ccccc2)CC1)c1cccs1`, the cell number change is -13.1%. Besides, under setting [2], the AC50 was 0.0058 µM [falling, full curve, poor fit].
As for `COc1ccc(Cn2c(CCC(=O)Nc3ccccc3)nc3cccnc32)cc1`, the cell number change was -38.8%. The concentration at half-maximal activity (AC50) under setting [2] is 16.4 µM [falling, single point]. The concentration at half-maximal activity (AC50) under setting [1] is 0.461 µM [rising, full curve, poor fit].
Regarding `CCCc1nc2ccccc2n1CCOc1ccccc1`, the cell number change is -10.5%. Also, the AC50 under setting [1] is 0.291 µM [rising, partial curve, poor fit].
As for `Cc1cccc(NC(=O)CN2CCN(C(=O)C3CCN(C(=O)/C=C/c4ccccc4)CC3)CC2)c1C`, the cell number change was -11.3%. Further, the concentration at half-maximal activity (AC50) under setting [1] is 3.26 µM [falling, single point].
As to `Cc1ccc(S(=O)(=O)N2CCN(C(=O)CSC(=S)N3CCCC3)CC2)c(C)c1`, the cell number change is -18.3%. The AC50 under setting [1] was 6.51 µM [falling, single point].
Consider `COc1ccc(CNC(=O)C2=C(C)C(=O)OC23CCC(C)CC3)cc1` (stereo not given), for which the half-maximal activity concentration (AC50) under setting [2] is 0.651 µM [rising, single point] and the concentration at half-maximal activity (AC50) under setting [1] is 0.58 µM [rising, single point].
On to `CCCNC1=CC(=O)CC(C)(C)C1`, for which the cell number change was found to be 21%. Moreover, the AC50 under setting [1] was 0.0058 µM [rising, full curve, poor fit].
For the compound `O=c1c2ccccc2ncn1CCCSc1ccc(Cl)cc1`, the cell number change is 25.3%.
Take `COC(=O)C1=C(C)N(CCCC(=O)O)C(=O)NC1c1ccc(-c2ccccc2)cc1` (stereo not given): the cell number change stood at 10%. Also, the half-maximal activity concentration (AC50) under setting [1] was 5.8 µM [falling, partial curve].
With `Cc1cc2occ(CC(=O)N(C)CC(=O)Nc3ccccc3Cl)c2cc1C`, the cell number change is 51%. Moreover, the half-maximal activity concentration (AC50) under setting [1] is 29.1 µM [rising, single point].
With `O=C(O)c1cnn2c(C(F)(F)F)cc(-c3ccccc3)nc12`, the AC50 by setting is: under setting [2], 0.92 µM [rising, full curve, poor fit]; under setting [1], 0.731 µM [rising, partial curve].
Take `CC(=O)Nc1ccc(S(=O)(=O)Nc2cccc(-n3c(C)nc4ccccc4c3=O)c2)cc1`: the AC50 under setting [1] was 6.51 µM [rising, single point].
For `CC(=O)Nc1ccc2c(c1)C(=O)c1ccccc1C2=O`, the cell number change is -25.4%. Moreover, the concentration at half-maximal activity (AC50) under setting [1] is 5.17 µM [falling, full curve, poor fit].
As to `Cc1ccc(S(=O)(=O)N2CCCOC2CNC(=O)C(=O)NCc2ccncc2)cc1` (stereo not given), the cell number change stood at 77.9%. Further, the concentration at half-maximal activity (AC50) under setting [2] is 0.651 µM [rising, full curve]. In addition, the half-maximal activity concentration (AC50) under setting [1] was 3.66 µM [rising, full curve].
For `CC(=O)c1cccc(NC(=O)N2CCc3ccccc3C2)c1`, the cell number change is -13.7%. Under setting [1], the half-maximal activity concentration (AC50) is 1.16 µM [falling, single point].
Turning to `CCOC(=O)Cc1c(C)[nH]n(-c2ccccc2)c1=O`, the cell number change was -7.79%. Further, the AC50 under setting [1] is 0.231 µM [falling, full curve, poor fit].
For the compound `O=C1NC(=S)N/C1=C/c1ccc(-c2c(Br)cc([N+](=O)[O-])cc2Br)o1`, the AC50 under setting [1] is 29.1 µM [falling, single point].
As to `COCCn1c(SCC(=O)N2CCCCCC2)nnc1-c1ccco1`, the cell number change is 9.21%.
For the compound `CCOC(=O)[C@H]1[C@H]2COc3ccc(Cl)cc3[C@@H]2N2C(=O)c3cc(F)c(F)cc3NC(=O)[C@@]12C`, the cell number change is -37.8%. Moreover, the half-maximal activity concentration (AC50) under setting [2] was 9.2 µM [falling, partial curve]. For the same compound, under setting [1], the AC50 was 23.1 µM [falling, single point].
Consider `O=C(CCN1C(=O)/C(=C/c2cccs2)SC1=S)Nc1cccc(O)c1`, for which the cell number change is -4.17%. Also, under setting [1], the AC50 was 0.517 µM [falling, single point].
As for `CCOC(=O)N1CCN(C(=O)CS(=O)(=O)c2cn(Cc3ccccc3Cl)c3ccccc23)CC1`, the AC50 under setting [1] is 29.1 µM [rising, single point].
`CC(OC(=O)c1ccc2c(c1)S(=O)(=O)c1ccccc1C2=O)C(N)=O` (stereo not given): the cell number change was -4.05%. Further, the concentration at half-maximal activity (AC50) under setting [1] was 29.1 µM [rising, single point].
As to `COc1ccc(OCCCC(=O)NC(C)c2ccccc2)cc1` (stereo not given), the AC50 is, setting by setting: under setting [2], 0.517 µM [falling, single point]; under setting [1], 6.51 µM [falling, single point].
As to `CCn1c(Cc2ccc(OC)cc2)nnc1SCc1nc2ccccc2c(=O)[nH]1`, the AC50 by setting is: under setting [2], 2.91 µM [rising, partial curve]; under setting [1], 0.366 µM [rising, full curve].
In the case of `CN(C)c1cccc2c1c(NC(=O)c1ccc(Cl)cc1)nn2C`, the cell number change worked out at 6.03%. The half-maximal activity concentration (AC50) under setting [1] is 2.06 µM [rising, full curve].
Turning to `CCc1c(C)c2ccc(OCC(=O)N(C)C)c(C)c2oc1=O`, the cell number change stood at 46.6%. The AC50 under setting [2] was 4.11 µM [rising, partial curve, poor fit]. The AC50 under setting [1] is 0.103 µM [rising, single point].
Take `CCN(CC)c1ccc(NC(=O)c2c(C)noc2C)cc1`: the cell number change turned out to be 31.8%. Further, under setting [2], the concentration at half-maximal activity (AC50) is 0.517 µM [rising, partial curve, poor fit]. For the same compound, the AC50 under setting [1] is 0.82 µM [rising, full curve, poor fit].
Consider `Cc1nn(CC(=O)Nc2cccc(S(N)(=O)=O)c2)c(C)c1[N+](=O)[O-]`, for which the cell number change was -18.1%. Further, the half-maximal activity concentration (AC50) under setting [2] is 7.31 µM [falling, single point].
For the compound `COc1cccc(C(=O)NC(=S)Nc2ccccc2N2CCOCC2)c1`, the cell number change is -23.8%. Also, the AC50 under setting [1] was 2.06 µM [falling, full curve, poor fit].
